Library screening results

The chains behind the UniProt entries cited, without tags or fusion partners.
UniProt E9BF75, entry or part of it: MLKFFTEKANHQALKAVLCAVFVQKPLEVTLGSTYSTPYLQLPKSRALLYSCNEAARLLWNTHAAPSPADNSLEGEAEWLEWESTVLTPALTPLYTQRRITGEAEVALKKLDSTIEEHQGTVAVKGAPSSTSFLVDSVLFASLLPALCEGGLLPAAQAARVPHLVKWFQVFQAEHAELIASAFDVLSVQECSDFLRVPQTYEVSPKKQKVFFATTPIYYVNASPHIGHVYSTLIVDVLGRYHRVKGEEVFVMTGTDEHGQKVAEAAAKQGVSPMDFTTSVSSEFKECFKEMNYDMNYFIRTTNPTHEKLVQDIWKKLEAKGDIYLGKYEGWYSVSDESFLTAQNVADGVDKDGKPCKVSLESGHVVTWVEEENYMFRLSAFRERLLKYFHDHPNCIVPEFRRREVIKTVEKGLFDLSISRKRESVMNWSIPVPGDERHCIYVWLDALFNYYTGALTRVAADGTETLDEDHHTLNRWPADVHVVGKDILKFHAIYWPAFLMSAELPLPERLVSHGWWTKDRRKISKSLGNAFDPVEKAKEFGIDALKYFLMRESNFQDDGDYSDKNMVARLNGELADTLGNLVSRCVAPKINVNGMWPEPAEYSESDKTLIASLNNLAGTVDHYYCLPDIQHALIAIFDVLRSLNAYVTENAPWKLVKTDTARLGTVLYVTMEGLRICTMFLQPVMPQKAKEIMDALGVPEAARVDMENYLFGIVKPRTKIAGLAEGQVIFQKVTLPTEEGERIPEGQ

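Methionyl-tRNA synthetase (putative), Leishmania donovani (UniProt E9BF75). Primary screen of methionyl-tRNA synthetase; the read-out is not stated. The test concentration is not given. Values are per cent inhibition. Of about 68,000 compounds tested this way, about 24 (0.035%) reached 50% or more in at least one test.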

Results are percentages, as filed. The record does not define 0% and 100%; most values in the screen are far below 50% and negative numbers occur (in some assays of this library far below -100). This is an unselected part of the compounds tested.

Cc1ncsc1-c1cc(C(=O)NCCO)ccn1 read 11.64%.
Cn1ncc(NC(=O)c2noc3c2CCCC3)c1C(N)=O read 4.595%.
CCc1nnc2n1CCN(C(=O)c1ccc3[nH]cnc3c1)C2 read 10.62%.
CCN(CCc1nc2cc(C)ccc2[nH]1)C(=O)[C@@H](N)Cc1c[nH]cn1 read 6.452%.
CN1CCC(CNC(=O)c2ccc(O)nc2)c2ccccc21 (centres undefined) read 7.971%.
CN(C)C(=O)C1CCC2(CCN(C(=O)Nc3ccccc3)CC2)O1 (centres undefined) read 6.452%.
Cc1nc(NCCSc2cnn[nH]2)c2cccnc2n1 read -0.8219%.
Cc1cc(CN2CCN(C(C)c3nc(C(C)C)no3)CC2)no1 (centres undefined) read 11.45%.
CCCc1cc(N2CCC(Cc3cccc(C(N)=O)c3)C2)nc(C)n1 (centres undefined) read 14.2%.
Cc1nc(C)n(CC2CCCN(CCC(=O)NC3CCCCC3)C2)n1 (centres undefined) read 18.78%.
Cc1ccc(OCC(=O)N2CCCC(n3nc(C)nc3C)C2)cc1 (centres undefined) read 15.67%.
CC(C)CN1CCN(C(=O)Nc2cc(C(F)(F)F)c[nH]c2=O)CC1 read 13.36%.
CCC1CN(C(=O)c2ccc(=O)[nH]n2)CCC(=O)N1Cc1ccccc1 (centres undefined) read 6.383%.
COCC(=O)N1C[C@@H](OCc2ccncc2)[C@@H]2OCCC[C@@H]21 read 0.8646%.
N#CCSCCCN1CCN(C(=O)C2CCCC2)CC1 read 9.893%.
CCOCC1CCN(C(=O)Nc2ccc3c(c2)CCCO3)C1 (centres undefined) read 0.3521%.
CC(O)CN1CC2(CCC1=O)CCN(Cc1cc(F)ccc1Cl)CC2 (centres undefined) read 13.97%.
Cc1ccc(CNC(=O)N2CCOCC2C2CC2)cc1F (centres undefined) read 0.4819%.
Cc1ccc(NC2CCN(C(=O)CCc3ccsc3)CC2)nn1 read 11.93%.
CC1CN(CC(=O)Nc2ccncc2)CCN1c1nccs1 (centres undefined) read 19.44%.
CC(=O)N1CCC(c2nc(Cc3ccccc3)no2)C1 (centres undefined) read 8.152%.
COc1cc(C(=O)NCCc2ccc(OC)c(OC)c2)on1 read 12.95%.
CN(C)C(=O)c1cnc(-c2ccc3c(c2)OCO3)s1 read 12.66%.
Cc1cccc(-c2cccc(CC3(C(=O)O)CCOCC3)c2)c1 read -1.042%.
CCC(NCc1nccn1C)c1nc(C(F)(F)F)cs1 (centres undefined) read 4.53%.
CCS(=O)(=O)N1C[C@@H](OCc2ccccn2)[C@@H]2OCCC[C@@H]21 read 6.536%.
Cc1ccc2c(c1)C(NC(=O)C1CCN(S(C)(=O)=O)CC1)CC(C)(C)O2 (centres undefined) read 1.389%.
CCCN1Cc2nc(N3CCCC3)ncc2C1=O read 19.55%.
O=c1c2sccc2nc2n1CCN(Cc1cccs1)CC2 read 15.41%.
CN(C)S(=O)(=O)N1CCCC(c2nccnc2-c2cccc(Cl)c2)C1 (centres undefined) read 10.47%.
NC(=O)CN1CCCC(C(=O)N2CCC(O)(Cc3ccccc3)CC2)C1 (centres undefined) read 12.59%.
O=C(NCCn1ccc(-c2ccccn2)n1)C1CCC1 read 8.609%.
CNc1snc(C)c1C(=O)N1CCCC(n2cccn2)C1 (centres undefined) read 16.47%.
CN(C)C(CNC(=O)c1ncoc1-c1ccccc1)c1ccsc1 (centres undefined) read 17.71%.
CC(=O)N1CCCC(Cc2cnc(C(=O)N3CCC(C)CC3)cn2)C1 (centres undefined) read 11%.

The last 4 entries again:

* O=C(NCCn1ccc(-c2ccccn2)n1)C1CCC1 : 8.609%
* CNc1snc(C)c1C(=O)N1CCCC(n2cccn2)C1 (centres undefined) : 16.47%
* CN(C)C(CNC(=O)c1ncoc1-c1ccccc1)c1ccsc1 (centres undefined) : 17.71%
* CC(=O)N1CCCC(Cc2cnc(C(=O)N3CCC(C)CC3)cn2)C1 (centres undefined) : 11%

Source: ChEMBL document CHEMBL3988442, “University of Dundee, Small-Polar-MMV Screening Library” (2021).